Consider one substance from publication PMC5873885.

Protein sequences, listed by entry. Tags and fused reporters are not part of them. Lines headed by an entry give the natural chain unless they say otherwise; changes in a name come on top. Chains listed by the source or under a name are the forms on record and can include a tag or linker.
UniProt Q969H0: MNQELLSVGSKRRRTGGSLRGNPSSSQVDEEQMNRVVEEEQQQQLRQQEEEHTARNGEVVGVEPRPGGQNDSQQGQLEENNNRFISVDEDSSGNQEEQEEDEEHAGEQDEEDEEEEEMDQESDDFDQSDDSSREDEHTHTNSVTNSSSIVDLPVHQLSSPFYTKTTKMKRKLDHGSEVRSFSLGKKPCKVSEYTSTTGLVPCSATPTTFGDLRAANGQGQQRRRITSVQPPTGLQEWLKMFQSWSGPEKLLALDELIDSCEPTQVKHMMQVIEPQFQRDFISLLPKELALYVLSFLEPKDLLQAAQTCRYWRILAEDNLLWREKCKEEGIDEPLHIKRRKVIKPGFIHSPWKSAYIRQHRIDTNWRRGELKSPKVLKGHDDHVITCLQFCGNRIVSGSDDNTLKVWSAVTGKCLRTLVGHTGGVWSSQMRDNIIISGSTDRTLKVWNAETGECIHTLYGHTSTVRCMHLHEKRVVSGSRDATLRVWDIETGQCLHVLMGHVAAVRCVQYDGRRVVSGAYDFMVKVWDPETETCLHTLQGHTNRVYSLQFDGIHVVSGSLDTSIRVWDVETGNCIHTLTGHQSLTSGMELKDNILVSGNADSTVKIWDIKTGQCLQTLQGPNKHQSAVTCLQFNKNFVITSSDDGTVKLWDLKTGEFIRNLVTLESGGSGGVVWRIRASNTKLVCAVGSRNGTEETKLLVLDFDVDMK
Flag-tagged FBW7β (Q969H0, form named): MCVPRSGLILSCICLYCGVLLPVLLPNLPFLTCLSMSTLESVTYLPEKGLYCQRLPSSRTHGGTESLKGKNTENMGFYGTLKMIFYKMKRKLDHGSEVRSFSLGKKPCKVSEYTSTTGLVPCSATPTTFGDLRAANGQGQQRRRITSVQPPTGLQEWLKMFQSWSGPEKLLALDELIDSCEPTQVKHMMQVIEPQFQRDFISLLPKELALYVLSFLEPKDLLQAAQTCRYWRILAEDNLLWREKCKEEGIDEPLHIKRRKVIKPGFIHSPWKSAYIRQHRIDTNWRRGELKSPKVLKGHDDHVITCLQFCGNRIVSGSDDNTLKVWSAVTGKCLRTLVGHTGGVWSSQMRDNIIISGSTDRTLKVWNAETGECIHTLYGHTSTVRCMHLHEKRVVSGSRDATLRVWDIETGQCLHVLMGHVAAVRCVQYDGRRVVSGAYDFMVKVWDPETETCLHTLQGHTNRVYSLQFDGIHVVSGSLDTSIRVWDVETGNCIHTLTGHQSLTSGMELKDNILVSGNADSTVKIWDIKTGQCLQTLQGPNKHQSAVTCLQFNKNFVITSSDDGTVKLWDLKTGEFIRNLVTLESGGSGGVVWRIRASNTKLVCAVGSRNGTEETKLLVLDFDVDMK
Flag-tagged FBW7γ (Q969H0, form named): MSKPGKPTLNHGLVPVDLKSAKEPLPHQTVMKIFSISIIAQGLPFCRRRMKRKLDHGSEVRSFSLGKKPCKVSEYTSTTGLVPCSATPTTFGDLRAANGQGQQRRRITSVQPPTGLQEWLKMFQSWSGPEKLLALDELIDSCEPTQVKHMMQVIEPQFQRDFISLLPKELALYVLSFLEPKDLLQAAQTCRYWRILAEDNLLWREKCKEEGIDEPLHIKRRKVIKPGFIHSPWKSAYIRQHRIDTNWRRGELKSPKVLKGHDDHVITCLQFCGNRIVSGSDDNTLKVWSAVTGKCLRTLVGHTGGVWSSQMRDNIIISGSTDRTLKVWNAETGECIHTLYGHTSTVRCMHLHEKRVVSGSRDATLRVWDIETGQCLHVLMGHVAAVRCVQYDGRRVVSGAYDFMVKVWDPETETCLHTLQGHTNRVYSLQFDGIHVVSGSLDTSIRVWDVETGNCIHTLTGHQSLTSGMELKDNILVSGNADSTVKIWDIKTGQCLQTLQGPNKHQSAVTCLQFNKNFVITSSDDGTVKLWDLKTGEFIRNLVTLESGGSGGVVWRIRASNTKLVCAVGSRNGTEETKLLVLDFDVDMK
UniProt Q93008: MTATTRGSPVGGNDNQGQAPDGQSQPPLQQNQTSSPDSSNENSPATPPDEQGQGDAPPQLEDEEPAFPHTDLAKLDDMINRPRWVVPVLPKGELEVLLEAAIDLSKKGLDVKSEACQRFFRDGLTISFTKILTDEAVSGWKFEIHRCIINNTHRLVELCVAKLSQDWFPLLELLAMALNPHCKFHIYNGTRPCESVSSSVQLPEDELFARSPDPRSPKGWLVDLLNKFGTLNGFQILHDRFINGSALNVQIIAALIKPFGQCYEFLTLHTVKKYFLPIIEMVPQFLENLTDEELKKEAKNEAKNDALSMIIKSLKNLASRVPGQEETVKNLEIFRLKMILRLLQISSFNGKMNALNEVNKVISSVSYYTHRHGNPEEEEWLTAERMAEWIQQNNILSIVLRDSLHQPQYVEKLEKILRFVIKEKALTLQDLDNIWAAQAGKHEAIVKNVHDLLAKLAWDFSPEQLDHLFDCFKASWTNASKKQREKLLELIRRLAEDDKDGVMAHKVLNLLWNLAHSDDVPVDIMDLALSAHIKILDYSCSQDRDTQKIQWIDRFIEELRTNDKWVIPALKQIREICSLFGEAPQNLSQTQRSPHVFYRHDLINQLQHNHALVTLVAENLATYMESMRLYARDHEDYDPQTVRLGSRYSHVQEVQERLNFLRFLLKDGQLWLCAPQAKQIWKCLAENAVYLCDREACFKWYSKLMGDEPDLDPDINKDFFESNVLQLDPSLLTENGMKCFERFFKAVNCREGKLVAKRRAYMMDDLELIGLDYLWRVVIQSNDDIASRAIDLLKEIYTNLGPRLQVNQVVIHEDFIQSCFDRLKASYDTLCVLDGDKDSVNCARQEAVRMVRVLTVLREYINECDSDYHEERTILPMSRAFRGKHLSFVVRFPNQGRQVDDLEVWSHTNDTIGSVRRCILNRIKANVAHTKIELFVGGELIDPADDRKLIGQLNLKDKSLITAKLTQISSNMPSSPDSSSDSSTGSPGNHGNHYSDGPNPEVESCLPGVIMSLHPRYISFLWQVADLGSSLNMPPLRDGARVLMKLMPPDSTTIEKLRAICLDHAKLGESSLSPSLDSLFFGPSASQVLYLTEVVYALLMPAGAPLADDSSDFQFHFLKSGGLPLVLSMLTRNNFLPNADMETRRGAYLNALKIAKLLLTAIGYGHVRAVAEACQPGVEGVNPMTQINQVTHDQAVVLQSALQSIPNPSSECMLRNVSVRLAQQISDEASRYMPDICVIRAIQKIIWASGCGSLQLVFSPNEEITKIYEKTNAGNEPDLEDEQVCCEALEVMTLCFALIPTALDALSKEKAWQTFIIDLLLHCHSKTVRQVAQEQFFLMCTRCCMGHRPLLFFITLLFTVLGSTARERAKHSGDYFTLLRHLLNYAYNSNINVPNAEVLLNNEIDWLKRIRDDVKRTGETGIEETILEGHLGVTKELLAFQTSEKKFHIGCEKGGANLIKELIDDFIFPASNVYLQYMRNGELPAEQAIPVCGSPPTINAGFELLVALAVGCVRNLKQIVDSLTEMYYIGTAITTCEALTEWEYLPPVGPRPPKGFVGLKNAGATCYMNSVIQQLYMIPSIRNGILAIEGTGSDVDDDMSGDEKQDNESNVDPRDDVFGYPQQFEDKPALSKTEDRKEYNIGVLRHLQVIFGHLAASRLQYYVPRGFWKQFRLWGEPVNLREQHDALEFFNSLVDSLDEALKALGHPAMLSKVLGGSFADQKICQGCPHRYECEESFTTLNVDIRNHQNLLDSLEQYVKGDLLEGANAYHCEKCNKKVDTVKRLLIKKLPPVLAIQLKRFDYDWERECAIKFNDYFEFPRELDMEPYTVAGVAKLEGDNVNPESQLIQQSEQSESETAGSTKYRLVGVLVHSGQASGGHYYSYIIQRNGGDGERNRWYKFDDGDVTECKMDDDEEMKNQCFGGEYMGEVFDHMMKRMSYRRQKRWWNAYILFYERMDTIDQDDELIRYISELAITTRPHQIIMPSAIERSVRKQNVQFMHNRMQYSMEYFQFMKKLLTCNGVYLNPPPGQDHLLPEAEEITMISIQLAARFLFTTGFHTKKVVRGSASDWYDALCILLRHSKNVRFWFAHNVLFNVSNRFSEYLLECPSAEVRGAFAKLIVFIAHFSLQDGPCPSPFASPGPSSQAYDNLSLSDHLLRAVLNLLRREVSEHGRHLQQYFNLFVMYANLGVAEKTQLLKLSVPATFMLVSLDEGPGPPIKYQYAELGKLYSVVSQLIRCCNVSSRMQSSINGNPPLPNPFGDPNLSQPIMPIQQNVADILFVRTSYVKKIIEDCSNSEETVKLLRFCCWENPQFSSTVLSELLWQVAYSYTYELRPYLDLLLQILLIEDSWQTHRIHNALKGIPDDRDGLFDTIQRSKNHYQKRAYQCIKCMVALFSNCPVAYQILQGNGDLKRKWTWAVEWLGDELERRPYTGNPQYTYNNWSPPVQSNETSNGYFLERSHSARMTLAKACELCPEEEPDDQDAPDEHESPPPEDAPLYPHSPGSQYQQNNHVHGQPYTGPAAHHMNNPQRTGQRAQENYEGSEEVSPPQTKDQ

These are yes or no findings as the source states them, for the method shown. In cells and extracts the contact can be indirect. Some entries that bind do so weakly or less than the wild type.

Experiment [1] concerns the target FBW7 (endogenous, HEK293; precipitated or detected with an FBW7α-specific antibody) (human (endogenous in HEK293)) (UniProt Q969H0). Put plainly: co-IP; immunoprecipitation of endogenous FBW7 from HEK293 cells, Western blot for endogenous USP9X; siFBW7 as negative control.
For a further experiment, the target named is Flag-tagged FBW7β (UniProt Q969H0). As to the kind of experiment: co-IP; Flag-tagged FBW7α, -β or -γ overexpressed in HEK293 cells; interaction with endogenous USP9X.
A further experiment concerns the target Flag-tagged FBW7α (UniProt Q969H0). Described as above.
A further experiment addresses Flag-tagged FBW7γ (UniProt Q969H0). The experiment is described as above.

Turning to “USP9X (endogenous, HEK293) (from UniProt Q93008 1-2554) (enzyme)”, the binding entry in experiment [1] is reported as “binds”; in the experiment with Flag-tagged FBW7β, “binds”; with Flag-tagged FBW7α it was “binds”; with Flag-tagged FBW7γ, “no binding”.
